Source: the supplement of paper PMC10689618
The list shows a part of the results. Many values rest on one well or one pass, so single values are uncertain.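 Primary human fetal astrocytes engulfed labelled rat cortical synaptosomes, measured as a red/green ratio corrected for calcein live-cell signal and scaled to the plate median. Toxicity meant calcein falling over 30%; decreased phagocytosis meant below 70% of median above 5 µM.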

What was measured:
[1] = tested on: Human fetal astrocytes; assay: loss of total cells relative to no-compound high-control median (toxicity); higher = more toxic (fewer cells); settings: 24 h
[2] = tested on: Human fetal astrocytes; assay: synaptosome phagocytosis (pHrodo/calcein intensity ratio) relative to plate median of data wells; higher = more phagocytosis; settings: 24 h

| Structure (SMILES) | loss of total cells ([1]; 1.39 µM) [%] | loss of total cells ([1]; 2.78 µM) [%] | loss of total cells ([1]; 5.56 µM) [%] | loss of total cells ([1]; 11.11 µM) [%] | loss of total cells ([1]; 22.22 µM) [%] | synaptosome phagocytosis ([2]; 1.39 µM) [%] | synaptosome phagocytosis ([2]; 2.78 µM) [%] | synaptosome phagocytosis ([2]; 5.56 µM) [%] | synaptosome phagocytosis ([2]; 11.11 µM) [%] | synaptosome phagocytosis ([2]; 22.22 µM) [%] |
| --- | --- | --- | --- | --- | --- | --- | --- | --- | --- | --- |
| CC[C@]12CCCN3CCc4c(n(c5ccccc45)[C@@](O)(C(=O)OC)C1)[C@@H]32 | 9 | 16.2 | 16.7 | 2.9 | 18.9 | 112 | 103 | 114 | 127 | 96.8 |
| OCc1ccccc1O | 19.3 | -0.3 | -16 | 15.3 | 25.8 | 102 | 93.2 | 93.6 | 108 | 109 |
| OCC(O)CN1CCN(c2ccccc2)CC1 (stereo not given) | 6.1 | 12.6 | 15.9 | -11.3 | 4.5 | 91.1 | 107 | 105 | 85.4 | 99.4 |
| COC1=C(O)C(=O)c2c(cc3oc(C(C)=O)c(O)c3c2O)C1=O | 9 | -2.5 | 10.3 | 17.6 | -8.1 | 116 | 115 | 93.9 | 99 | 110 |
| C[C@@H]1[C@H](O)[C@@H](C)/C=C/C=C/C=C/C=C/C=C/C=C/C=C/[C@H](O[C@@H]2O[C@H](C)[C@@H](O)[C@H](N)[C@@H]2O)C[C@@H]2O[C@](O)(C[C@@H](O)C[C@@H](O)[C@H](O)CC[C@@H](O)C[C@@H](O)CC(=O)O[C@H]1C)C[C@H](O)[C@H]2C(=O)O | -1.7 | -2.1 | 18.9 | 1.6 | 11.3 | 107 | 113 | 132 | 112 | 93.2 |
| N=C1C=CC(=C(c2ccc(N)cc2)c2ccc(N)cc2)C=C1 | -4.8 | 37.3 | 3.1 | 48.9 | 52 | 60.6 | 81.6 | 65.1 | 147 | 135 |
| C=C(C)[C@@H]1CC[C@]2(C)CC[C@]3(C)[C@H](CC[C@@H]4[C@@]5(C)CC[C@H](O)C(C)(C)[C@@H]5CC[C@]43C)[C@@H]12 | -33.6 | -3.2 | -11 | 15.5 | 14.1 | 87.5 | 106 | 102 | 130 | 129 |
| COc1cccc2c1CCC1CC(=O)CC[C@]21C (stereo not given in full) | -27.2 | 12 | -16.8 | 10.3 | -8.5 | 83.3 | 108 | 88.6 | 103 | 116 |
| Nc1ncnc2c1ncn2[C@@H]1O[C@H](COP(=O)(O)O)[C@@H](O)[C@H]1O | 8 | -33.6 | -3.5 | -3.7 | 6.4 | 111 | 109 | 104 | 116 | 120 |
| CC(=O)[C@@]1(O)CC[C@H]2[C@@H]3C=C(Cl)C4=CC(=O)[C@@H]5C[C@@H]5[C@]4(C)[C@H]3CC[C@@]21C | 3.2 | 24.2 | 6.5 | -16.3 | 15.2 | 97.2 | 117 | 110 | 82.2 | 112 |
| COc1ccc(-c2cc(=O)c3c(O)c(OC)c(OC)c(OC)c3o2)cc1 | -26.2 | 9.7 | 2.2 | 2 | -3 | 110 | 84.2 | 99.8 | 98.1 | 120 |
| COc1cc(C)c(C(=O)O)c(O)c1 | 1.8 | 8 | 28.2 | -0.6 | 10.7 | 88.2 | 86.9 | 93.7 | 90.5 | 121 |
| CC(=O)Nc1ccc(S(=O)(=O)Nc2ccc([N+](=O)[O-])cc2)cc1 | 26.6 | -34.1 | -7.5 | -4.9 | 9 | 126 | 109 | 109 | 85.1 | 105 |
| CC[C@]1(O)C[C@H]2CN(CCc3c([nH]c4ccccc34)[C@@](C(=O)OC)(c3cc4c(cc3OC)N(C=O)[C@H]3[C@@](O)(C(=O)OC)[C@H](OC(C)=O)[C@]5(CC)C=CCN6CC[C@]43[C@@H]65)C2)C1 | 1.7 | 14.3 | 15.9 | 18 | 38.5 | 72.4 | 95 | 72.1 | 85.4 | 91.3 |
| COc1cc2cc3c4cc(OC)c(OC)cc4cc[n+]3c(C)c2cc1OC | 19.9 | 26.4 | 23.2 | 11.3 | 39.4 | 122 | 119 | 131 | 126 | 81.1 |
| C[C@@H]1O[C@@H]1P(=O)(O)O [Phosphomycin disodium] | 25.8 | -21.4 | 17.4 | 17.4 | 9 | 124 | 116 | 138 | 95 | 118 |
| CC(=O)OCC(=O)[C@@]1(OC(C)=O)[C@@H](C)C[C@H]2[C@@H]3C[C@H](F)C4=CC(=O)C=C[C@]4(C)[C@@]3(F)[C@@H](O)C[C@@]21C | -9 | -10.5 | -2.9 | -11.3 | 6.8 | 84.1 | 90.6 | 94.1 | 98.9 | 124 |
| NS(=O)(=O)c1cc2c(cc1C(F)(F)F)NC(Cc1ccccc1)NS2(=O)=O (stereo not given) | -33.1 | -20.6 | 12.4 | 38.4 | 11.5 | 105 | 112 | 130 | 162 | 122 |
| Cc1onc(-c2ccccc2)c1C(=O)N[C@@H]1C(=O)N2[C@@H]1SC(C)(C)[C@@H]2C(=O)O | -9.1 | -7 | 10.5 | -12.5 | 8.5 | 109 | 101 | 104 | 97.6 | 95.7 |
| C[C@@H]1CC[C@@]2(OC1)O[C@H]1C[C@H]3[C@@H]4CC=C5C[C@@H](O)CC[C@]5(C)[C@H]4CC[C@]3(C)[C@H]1[C@@H]2C | 15.5 | 15.5 | 11.6 | -2.9 | 0 | 100 | 105 | 104 | 149 | 91.6 |
| N=C(N)NC(=N)N1CCOCC1 | 23.5 | 21.3 | 26.1 | -9.6 | 16.7 | 137 | 124 | 136 | 83.5 | 149 |

Three structures from above, arranged by molecular weight, low to high:

| Structure (SMILES) | loss of total cells ([1]; 1.39 µM) [%] | loss of total cells ([1]; 2.78 µM) [%] | loss of total cells ([1]; 5.56 µM) [%] | loss of total cells ([1]; 11.11 µM) [%] | loss of total cells ([1]; 22.22 µM) [%] | synaptosome phagocytosis ([2]; 1.39 µM) [%] | synaptosome phagocytosis ([2]; 2.78 µM) [%] | synaptosome phagocytosis ([2]; 5.56 µM) [%] | synaptosome phagocytosis ([2]; 11.11 µM) [%] | synaptosome phagocytosis ([2]; 22.22 µM) [%] |
| --- | --- | --- | --- | --- | --- | --- | --- | --- | --- | --- |
| N=C1C=CC(=C(c2ccc(N)cc2)c2ccc(N)cc2)C=C1 | -4.8 | 37.3 | 3.1 | 48.9 | 52 | 60.6 | 81.6 | 65.1 | 147 | 135 |
| CC(=O)Nc1ccc(S(=O)(=O)Nc2ccc([N+](=O)[O-])cc2)cc1 | 26.6 | -34.1 | -7.5 | -4.9 | 9 | 126 | 109 | 109 | 85.1 | 105 |
| CC[C@]1(O)C[C@H]2CN(CCc3c([nH]c4ccccc34)[C@@](C(=O)OC)(c3cc4c(cc3OC)N(C=O)[C@H]3[C@@](O)(C(=O)OC)[C@H](OC(C)=O)[C@]5(CC)C=CCN6CC[C@]43[C@@H]65)C2)C1 | 1.7 | 14.3 | 15.9 | 18 | 38.5 | 72.4 | 95 | 72.1 | 85.4 | 91.3 |
